Laboratory results taken from PubChem BioAssay AID248 (DTP/NCI, 2004).
The list does not hold the whole screen: it gathers tests that were run many times, whatever their T/C, doses with no T/C, and many T/C values between a quarter and a half above the control. Further doses and runs are listed elsewhere. T/C gives the treated animals as a percentage of the vehicle group. Some entries give survivors of the animals treated and no T/C: the source files T/C as zero there, which appears to mark a toxic dose or a test without result, not a measured value. Some doses without a T/C left all or most animals alive at the check, yet need not have been tolerated: survival well below the control is almost never listed, so the zero probably covers shortened survival too. Survivors were counted at the toxicity check, usually on the fifth day, unless a day is given; later deaths do not show. Schedules are NCI's codes, read here as Q, the interval in days (D) or hours (H), X, the number of doses. Some schedule codes hold Z or #, which are not explained here. Some doses were run more than once; the values are given in rising order. Where survival is the endpoint, the PubChem record calls one and a half times the control and up active, and a quarter to a half above the control has no call in these data; cut-offs in other NCI protocols can differ. Marks such as (2×) stand for listed records that agree.

Tested on: L1210 leukemia ip in BDF1 mice, survival T/C
Assay: NCI In Vivo Anticancer Drug Screen. Data for tumor model L1210 Leukemia (intraperitoneal) in B6D2F1 (BDF1) mice
Conditions: T/C endpoint: mean survival time, higher T/C = longer survival
[1] = dose: 200.0 mg/kg/injection, schedule: Q01DX001 (ip), vehicle: saline
[2] = dose: 400.0 mg/kg/injection, schedule: Q01DX001 (ip), vehicle: saline
[3] = dose: 100.0 mg/kg/injection, schedule: Q04DX002 (ip), vehicle: saline with Tween-80
[4] = dose: 200.0 mg/kg/injection, schedule: Q04DX002 (ip), vehicle: saline with Tween-80
[5] = dose: 400.0 mg/kg/injection, schedule: Q04DX002 (ip), vehicle: saline with Tween-80
[6] = dose: 400.0 mg/kg/injection, schedule: Q04DX003 (ip), vehicle: Klucel (hydroxypropylcellulose) (HPC)
[7] = dose: 200.0 mg/kg/injection, schedule: Q01DX009 (ip), vehicle: saline with Tween-80
[8] = dose: 400.0 mg/kg/injection, schedule: Q04DX003 (ip), vehicle: saline with Tween-80
[9] = dose: 400.0 mg/kg/injection, schedule: Q01DX001 (ip), vehicle: Klucel (hydroxypropylcellulose) (HPC)
[10] = dose: 25.0 mg/kg/injection, schedule: Q01DX009 (ip), vehicle: saline with Tween-80
[11] = dose: 50.0 mg/kg/injection, schedule: Q01DX009 (ip), vehicle: saline with Tween-80
[12] = dose: 100.0 mg/kg/injection, schedule: Q01DX009 (ip), vehicle: saline with Tween-80
[13] = dose: 400.0 mg/kg/injection, schedule: Q04DX002 (ip), vehicle: Klucel (hydroxypropylcellulose) (HPC)
[14] = dose: 200.0 mg/kg/injection, schedule: Q01DX009 (ip), vehicle: saline

COC(=O)C1=C(C(=O)OC)[C@H]2O[C@H]1[C@@H]1O[C@@H]12
survivor count (dose: 25.0 mg/kg/injection, schedule: Q01DX009 (ip), vehicle: saline): 0 of 6 | survivor count (dose: 50.0 mg/kg/injection, schedule: Q01DX001 (ip), vehicle: saline): 0 of 6 | survivor count (dose: 100.0 mg/kg/injection, schedule: Q01DX001 (ip), vehicle: saline): 0 of 6 | survivor count [1]: 0 of 6 | survivor count [2]: 0 of 6

N=C(N)SCc1cccc(Cl)c1
survivor count [3]: 1 of 3 | survivor count [4]: 0 of 3 | survivor count [5]: 0 of 3

BrCC1OCC2(CO1)COC(CBr)OC2 (stereo not drawn)
survivor count [6]: 1 of 6

CN1C(=O)C2(c3ccccc31)C1CC3C(CO1)C1C2C3(CO)C[N+]1(C)C (stereo not drawn)
survivor count [2]: 0 of 6

NC(CSC(c1ccccc1)(c1ccccc1)c1ccc(CO)cc1)C(=O)O (stereo not drawn)
T/C (dose: 85.0 mg/kg/injection, schedule: Q01DX009 (ip), vehicle: saline): 132 % of control | T/C (dose: 175.0 mg/kg/injection, schedule: Q01DX009 (ip), vehicle: saline): 127 and 146 % of control | T/C (dose: 265.0 mg/kg/injection, schedule: Q01DX009 (ip), vehicle: saline): 134 and 146 % of control

CCCN(CCC)CCCOC(=O)c1ccc(N)cc1
survivor count (dose: 150.0 mg/kg/injection, schedule: Q04DX003 (ip), vehicle: saline): 3 of 6 and 6 of 6 | survivor count (dose: 200.0 mg/kg/injection, schedule: Q04DX003 (ip), vehicle: saline): 2 of 6

CC(=O)N1c2ccccc2Sc2cc(C(O)(C(F)(F)F)C(F)(F)F)ccc21
survivor count [7]: 5 of 6 | survivor count [8]: 5 of 6

C[n+]1ccc(/C=C/c2ccnc3c(O)cccc23)c2ccccc21
survivor count (dose: 30.0 mg/kg/injection, schedule: Q01DX001 (ip), vehicle: saline): 0 of 6 | survivor count (dose: 60.0 mg/kg/injection, schedule: Q01DX001 (ip), vehicle: saline): 0 of 6

CCOC(=O)Nc1cc2c(c(N)n1)N=C(CN(C)c1ccc(Cl)cc1)CN2
T/C (dose: 44.0 mg/kg/injection, schedule: Q01DX001 (ip), vehicle: Klucel (hydroxypropylcellulose) (HPC)): 126 % of control | T/C (dose: 66.0 mg/kg/injection, schedule: Q01DX001 (ip), vehicle: Klucel (hydroxypropylcellulose) (HPC)): 146 % of control | survivor count (dose: 200.0 mg/kg/injection, schedule: Q01DX001 (ip), vehicle: Klucel (hydroxypropylcellulose) (HPC)): 2 of 3 | survivor count [9]: 0 of 3

COc1cc(C=O)ccc1OC(=O)Nc1ccc(F)c([N+](=O)[O-])c1
survivor count (dose: 200.0 mg/kg/injection, schedule: Q01DX009 (ip), vehicle: other): 2 of 6 | survivor count (dose: 400.0 mg/kg/injection, schedule: Q01DX009 (ip), vehicle: other): 0 of 6

O=C(CCc1ccccc1)NC(=S)Nc1ccc(I)cc1
T/C [10]: 90, 101, 105 % of control | survivor count [10]: 3 of 3 | T/C [11]: 88, 94, 107 % of control (2×) | T/C [12]: 92, 94, 95, 96 (2×), 112 % of control | T/C [3]: 143 % of control | T/C [7]: 86, 89, 100 % of control | survivor count [7]: 3 of 3

O=P(Oc1ccccc1)(Oc1ccccc1)C(Nc1ccccc1)c1cccnc1 (stereo not drawn)
survivor count [8]: 6 of 6

O=C(NCCBr)NC1CC1c1ccccc1 (stereo not drawn)
survivor count (dose: 200.0 mg/kg/injection, schedule: Q04DX003 (ip), vehicle: Klucel (hydroxypropylcellulose) (HPC)): 1 of 6 | survivor count [6]: 1 of 6

c1ccc(N=C(Nc2ccccc2)Nc2ccccc2)cc1
survivor count (dose: 200.0 mg/kg/injection, schedule: Q04DX002 (ip), vehicle: Klucel (hydroxypropylcellulose) (HPC)): 1 of 3 | survivor count [13]: 0 of 3

CCOC(=O)C1CC2CCC1CC2 (stereo not drawn)
survivor count [4]: 0 of 3 | survivor count [5]: 0 of 3

CC(=O)Nc1nnc(Sc2n[nH]c(=O)[nH]c2=O)s1
survivor count (dose: 20.0 mg/kg/injection, schedule: Q01DX001 (ip), vehicle: saline): 1 of 6 | survivor count (dose: 40.0 mg/kg/injection, schedule: Q01DX001 (ip), vehicle: saline): 3 of 6 | survivor count (dose: 75.0 mg/kg/injection, schedule: Q01DX001 (ip), vehicle: saline): 1 of 6 | survivor count (dose: 150.0 mg/kg/injection, schedule: Q01DX001 (ip), vehicle: saline): 0 of 6 | survivor count (dose: 300.0 mg/kg/injection, schedule: Q01DX001 (ip), vehicle: saline): 0 of 6

Clc1ccc(C(c2ccc(Cl)cc2)N2CCNCC2)cc1
survivor count [11]: 2 of 6 | survivor count [12]: 0 of 6 | survivor count (dose: 100.0 mg/kg/injection, schedule: Q04DX003 (ip), vehicle: saline with Tween-80): 4 of 6 | survivor count (dose: 200.0 mg/kg/injection, schedule: Q04DX003 (ip), vehicle: saline with Tween-80): 0 of 6 | survivor count [8]: 1 of 6

NC(Cc1c[nH]c2ccccc12)C(=O)OCc1ccccc1 (stereo not drawn)
survivor count (dose: 50.0 mg/kg/injection, schedule: Q01DX009 (ip), vehicle: water): 5 of 6 | survivor count (dose: 200.0 mg/kg/injection, schedule: Q01DX009 (ip), vehicle: water): 6 of 6 | survivor count (dose: 400.0 mg/kg/injection, schedule: Q01DX009 (ip), vehicle: water): 3 of 6

CCN(CC)CC(C)(C)/C=N/N=C(N)N
survivor count (dose: 120.0 mg/kg/injection, schedule: Q01DX Z (ip), vehicle: saline): 6 of 6

O=[N+]([O-])c1ccccc1N=Nc1c(O)[nH]c2ccc(Cl)cc12
survivor count [1]: 6 of 6

CC1B(O)Nc2nc(=S)[nH]c(N)c21 (stereo not drawn)
survivor count (dose: 400.0 mg/kg/injection, schedule: Q04DX003 (ip), vehicle: saline sonified): 0 of 6

NC(=S)/C(N)=N/Nc1ccc(Cl)cc1
survivor count [11]: 0 of 3 | T/C (dose: 50.0 mg/kg/injection, schedule: Q01DX009 (ip), vehicle: saline): 126 % of control | survivor count (dose: 100.0 mg/kg/injection, schedule: Q01DX009 (ip), vehicle: saline): 0 of 3 | survivor count [14]: 0 of 3

Cc1c(NC(C)C)ccc(NC(C)C)c1C
survivor count (dose: 400.0 mg/kg/injection, schedule: Q04DX002 (sc), vehicle: olive oil, sesame oil, peanut oil): 1 of 3

O=S1(=O)C=CC(Br)C1 (stereo not drawn)
survivor count (dose: 400.0 mg/kg/injection, schedule: Q01DX001 (ip), vehicle: saline with Tween-80): 0 of 6

CC(=O)Nc1c(C)c(NC(C)=O)c(C)c(NC(C)=O)c1C
survivor count (dose: 150.0 mg/kg/injection, schedule: Q01DX009 (ip), vehicle: Klucel (hydroxypropylcellulose) (HPC)): 5 of 6 | survivor count (dose: 300.0 mg/kg/injection, schedule: Q01DX009 (ip), vehicle: Klucel (hydroxypropylcellulose) (HPC)): 1 of 6

CC1CN(c2ccc([N+](=O)[O-])cc2)C(C)CN1 (stereo not drawn)
survivor count [14]: 1 of 6 | survivor count (dose: 400.0 mg/kg/injection, schedule: Q04DX003 (ip), vehicle: saline): 6 of 6

O=C(O)CSC(=S)SCC(=O)O
survivor count (dose: 400.0 mg/kg/injection, schedule: Q01DX009 (ip), vehicle: Klucel (hydroxypropylcellulose) (HPC)): 3 of 6

CN(C)C(=O)Nc1ccc2c(c1)OCO2
survivor count [9]: 3 of 6

CCCc1nc2ccccc2[nH]1
survivor count [8]: 0 of 6

O=C(O)c1cc(Br)cc(Cl)c1Br
survivor count [13]: 3 of 3

O=C(N/N=C/c1ccccn1)C1CCCO1 (stereo not drawn)
survivor count (dose: 400.0 mg/kg/injection, schedule: Q01DX009 (ip), vehicle: saline): 1 of 6

O=C(Nc1ccccn1)C(O)C(O)C(O)C(O)CO (stereo not drawn)
survivor count (dose: 100.0 mg/kg/injection, schedule: Q01DX003 (ip), vehicle: saline): 2 of 3 | survivor count (dose: 200.0 mg/kg/injection, schedule: Q01DX003 (ip), vehicle: saline): 0 of 3 | survivor count (dose: 400.0 mg/kg/injection, schedule: Q01DX003 (ip), vehicle: saline): 0 of 3
